Reference: US8669293B2, “Method and compositions for preventing hormone induced adverse effects” (Lycored Ltd., priority 2000, dated 2014)
At least one compound was matched to its structure with a doubt left.

Tests used:
[1] = tested on: ECC-1 endometrial cancer cells; assay: ECC-1 cell proliferation assay ([3H]thymidine incorporation into DNA); type: cell-based, human; conditions: genistein increasing concentrations; estradiol 1 and 10 nM; FIG. 1/2
Protocol: The human endometrial cancer (estrogen dependent) cell line ECC-1 was developed by Dr. […] University, PA, U.S.A, and generously provided to us by Dr. R. Oregan, Norwestern University, Chicago, Ill., U.S.A. Human mammary cancer cell lines MCF-7 (estrogen dependent) and MDA-231 (hormone independent) were obtained from the American Type Culture Collection (Rockville, Md., U.S.A.). Cells were cultured in DMEM containing penicillin (100 U/ml), streptomycin (0.1 mg/ml)) nystatin (12.5 μg/ml), insulin (0.6 μg/ml), and 10% FCS. Cells were stripped of endogenous steroids according to the procedure of Vignon et al. (1987, Biochem. Biophys. Res. Comm., 146:1502-8) by sucessive passages in medium without phenol red containing 10% and then 3% of charcoal-stripped FCS. Cells were seeded into 96 multiwell plates (5,000 cells per well) in DMEM containing 3% of charcoal-stripped FCS. After one day the medium was changed to one containing the solubilized carotenoid or THF alone. The medium was changed daily to ensure a continuous supply of carotenoid. […] Cell growth was also measured by direct cell counting with a Coulter counter after trypsinization and dilution in Isotone-II (Coulter Electronics, Luton, England). […] Cell proliferation after three days was measured by [^3H]thymidine incorporation into DNA (FIG. 1, panel A). […]

[2] = tested on: MCF-7 mammary cancer cells (estrogen dependent); assay: MCF-7 cell proliferation assay ([3H]thymidine incorporation); type: cell-based, human; conditions: genistein increasing concentrations; estradiol 1 and 10 nM; FIG. 2
Protocol: The human endometrial cancer (estrogen dependent) cell line ECC-1 was developed by Dr. P. G. Satyaswaroop, Pennslyvania State University, PA, U.S.A, and generously provided to us by Dr. R. Oregan, Norwestern University, Chicago, Ill., U.S.A. Human mammary cancer cell lines MCF-7 (estrogen dependent) and MDA-231 (hormone independent) were obtained from the American Type Culture Collection (Rockville, Md., U.S.A.).
Cells were cultured in DMEM containing penicillin (100 U/ml), streptomycin (0.1 mg/ml)) nystatin (12.5 μg/ml), insulin (0.6 μg/ml), and 10% FCS. Cells were stripped of endogenous steroids according to the procedure of Vignon et al. (1987, Biochem. Biophys. Res. Comm., 146:1502-8) by sucessive passages in medium without phenol red containing 10% and then 3% of charcoal-stripped FCS. Cells were seeded into 96 multiwell plates (5,000 cells per well) in DMEM containing 3% of charcoal-stripped FCS. After one day the medium was changed to one containing the solubilized carotenoid or THF alone. […]
After incubation, the number of cells and the rate of cell proliferation were estimated by the incorporation of [^3H]thymidine incorporation into cellular DNA, as described in U.S. Pat. No. 5,827,900. Cell growth was also measured by direct cell counting with a Coulter counter after trypsinization and dilution in Isotone-II (Coulter Electronics, Luton, England). […]

C[C@]12CC[C@@H]3c4ccc(O)cc4CC[C@H]3[C@@H]1CC[C@@H]2O [Estradiol, reference compound]
effect of hormone alone on proliferation [1]: only stimulatory for cell growth | effect of hormone alone on proliferation [2]: only stimulatory for cell growth
